To fix the notation:
T1: recombinant His6-tagged human SIRT2 protein (human) (UniProt Q8IXJ6)
T1 sequence: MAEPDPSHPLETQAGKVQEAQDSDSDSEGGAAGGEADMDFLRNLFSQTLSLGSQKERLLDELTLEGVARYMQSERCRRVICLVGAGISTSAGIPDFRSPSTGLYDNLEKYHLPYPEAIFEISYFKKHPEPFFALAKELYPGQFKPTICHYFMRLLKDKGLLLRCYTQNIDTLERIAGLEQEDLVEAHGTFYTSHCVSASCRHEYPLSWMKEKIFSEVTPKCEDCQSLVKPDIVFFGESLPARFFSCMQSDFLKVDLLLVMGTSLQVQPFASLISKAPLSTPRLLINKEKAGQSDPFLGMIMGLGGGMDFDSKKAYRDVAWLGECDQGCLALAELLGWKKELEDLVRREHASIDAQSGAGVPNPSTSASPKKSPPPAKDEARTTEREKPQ

The chains behind the UniProt entries cited, without tags or fusion partners. Residues count along the entry.
UniProt Q8JZU2, residues 14-311: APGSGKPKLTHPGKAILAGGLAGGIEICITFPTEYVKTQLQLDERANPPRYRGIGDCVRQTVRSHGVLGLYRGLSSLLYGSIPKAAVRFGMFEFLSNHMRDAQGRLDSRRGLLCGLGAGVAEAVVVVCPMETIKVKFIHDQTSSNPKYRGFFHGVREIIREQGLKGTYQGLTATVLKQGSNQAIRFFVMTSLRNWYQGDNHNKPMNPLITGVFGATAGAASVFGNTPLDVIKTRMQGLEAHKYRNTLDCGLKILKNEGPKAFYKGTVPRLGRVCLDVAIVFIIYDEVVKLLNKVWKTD

B1: Slc25a42 (protein, UniProt Q8R0Y8 1-318)
chain: MGNGVQEGSVRLREDAEAVLAGAVSSKRDHRQVLSSLLSGALAGALAKTAVAPLDRTKIIFQVSSKRFSAKEAFRLLYFTYLNEGFLSLWRGNSATMVRVIPYAAIQFSAHEEYKRILGHYYGFRGEALPPWPRLLAGALAGTTAASLTYPLDLVRARMAVTPKEMYSNIFHVFIRISREEGLKTLYFGFTPTVLGVIPYAGLSFFTYESLKSLHREYSGRPQPYPFERMVFGACAGLIGQSASYPLDVVRRRMQTAGVTGHQHGSILSTLRSIVREEGAVRGLYKGLSMNWLKGPIAVGISFTTFDLMQILLRRLQS
B2: Slc25a13 (protein, UniProt Q9QXX4 1-676)
chain: MAAAKVALTKRADPAELKAIFLKYASIEKNGEFFMSPHDFVTRYLNIFGESQPNPKTVELLSGVVDQTKDGLISFQEFVAFESVLCAPDALFMVAFQLFDKAGKGEVTFEDVKQIFGQTTIHQHIPFNWDSEFVQLHFGKERKRHLTYAEFTQFLLEIQLEHAKQAFVQRDNAKTGKVSAIDFRDIMVTIRPHVLTPFVEECLVAAAGGTRSHQVSFSYFNGFNSLLNNMELIRKIYSTLAGNRKDVEVTKEEFALAAQKFGQVTPMEVDILFQLADLYEPRGRMTLADIERIAPLEEGMLPFNLAEAQRQQKASGDAARPFLLQLAESAYRFGLGSIAGAVGATAVYPIDLVKTRMQNQRSTGSFVGELMYKNSFDCFKKVLRYEGFFGLYRGLLPQLLGVAPEKAIKLTVNDFVRDKFMHKDGSVPLLAEIFAGGCAGGSQVIFTNPLEIVKIRLQVAGEITTGPRVSALSVVRDLGFFGIYKGAKACFLRDIPFSAIYFPCYAHVKASFANEDGQVSPGSLLLAGAIAGMPAASLVTPADVIKTRLQVAARAGQTTYNGVTDCFRKILREEGPKALWKGVAARVFRSSPQFGVTLLTYELLQRWFYVDFGGVKPVGSEPVPKSRITLPAPNPDHVGGYKLAVATFAGIENKFGLYLPLFKPSASTSKVTAGDS
B3: Slc25a5 (protein, UniProt P51881 1-298)
chain: MTDAAVSFAKDFLAGGVAAAISKTAVAPIERVKLLLQVQHASKQITADKQYKGIIDCVVRIPKEQGVLSFWRGNLANVIRYFPTQALNFAFKDKYKQIFLGGVDKRTQFWRYFAGNLASGGAAGATSLCFVYPLDFARTRLAADVGKAGAEREFKGLGDCLVKIYKSDGIKGLYQGFNVSVQGIIIYRAAYFGIYDTAKGMLPDPKNTHIFISWMIAQSVTAVAGLTSYPFDTVRRRMMMQSGRKGTDIMYTGTLDCWRKIARDEGSKAFFKGAWSNVLRGMGGAFVLVLYDEIKKYT

No constants are given. Whether binding was seen depends on the method and setting. Binding seen in cells or lysates may run through a third protein. A yes stands for co-enrichment or nearness to the bait. Other partners may have been found. A no says only that the protein was not detected with the bait. Tags and fused reporters may be left off the sequences shown.

These results are taken from PMC11430619.

For this assay, the target named is T1, recombinant His6-tagged human SIRT2 protein (human). Kind of assay: affinity purification with mass spectrometry; 1 mg Sirt2-/- liver homogenate in NP1 buffer (1% nonidet P-40, 300 mM NaCl, 50 mM Tris-HCl; protease inhibitors, NAM, TSA), pre-cleared with anti-His6, incubated with 20 ug rSIRT2-His6 at 37 C for 30 min; captured with anti-His6 on Protein A/G agarose overnight at 4 C, washed 3 times; gel bands identified by mass spectrometry; only the target purified.
With Slc25a1 (from UniProt Q8JZU2 14-311), the binding result is “binds”.
Then B1, with “no binding”; and B2, with “binds”; and B3, with “binds”.
